Test results from paper doi:10.1101/197186 (bioRxiv, 2017).
These are yes or no findings as the source states them, for the method shown.

The chains behind the UniProt entries cited, without tags or fusion partners. Where a name states a change or a piece, a line headed by the entry shows the natural chain unless it says otherwise.
UniProt Q9Y6X9, whole entry, looked up, stated change not applied: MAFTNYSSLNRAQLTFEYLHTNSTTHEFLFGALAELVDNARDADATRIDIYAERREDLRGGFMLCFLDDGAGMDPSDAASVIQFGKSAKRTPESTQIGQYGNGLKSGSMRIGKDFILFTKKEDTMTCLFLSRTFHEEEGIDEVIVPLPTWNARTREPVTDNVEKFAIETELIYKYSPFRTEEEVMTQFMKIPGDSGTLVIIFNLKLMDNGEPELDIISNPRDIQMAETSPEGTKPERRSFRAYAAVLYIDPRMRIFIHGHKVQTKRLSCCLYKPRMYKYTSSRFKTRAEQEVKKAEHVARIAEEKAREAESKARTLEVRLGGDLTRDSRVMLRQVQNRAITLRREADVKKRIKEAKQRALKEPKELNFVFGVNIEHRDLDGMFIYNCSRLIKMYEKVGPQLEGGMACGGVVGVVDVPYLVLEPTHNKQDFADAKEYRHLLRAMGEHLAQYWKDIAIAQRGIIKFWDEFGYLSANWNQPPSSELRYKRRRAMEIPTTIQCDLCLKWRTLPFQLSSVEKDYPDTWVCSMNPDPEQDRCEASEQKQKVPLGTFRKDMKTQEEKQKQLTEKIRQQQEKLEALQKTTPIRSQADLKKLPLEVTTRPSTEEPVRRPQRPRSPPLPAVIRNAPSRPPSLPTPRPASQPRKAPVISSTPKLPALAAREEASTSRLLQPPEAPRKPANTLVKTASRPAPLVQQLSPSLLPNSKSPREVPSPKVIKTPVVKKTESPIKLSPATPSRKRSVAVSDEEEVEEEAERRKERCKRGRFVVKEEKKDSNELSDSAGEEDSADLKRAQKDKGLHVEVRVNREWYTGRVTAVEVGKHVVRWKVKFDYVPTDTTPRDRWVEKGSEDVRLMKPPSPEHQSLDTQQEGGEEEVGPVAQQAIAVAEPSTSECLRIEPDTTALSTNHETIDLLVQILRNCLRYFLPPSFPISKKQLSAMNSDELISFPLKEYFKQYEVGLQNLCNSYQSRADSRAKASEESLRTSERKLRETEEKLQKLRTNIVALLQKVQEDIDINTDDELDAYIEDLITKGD

Tests used:
[1] = target: human MORC2(1-603) N39A (human) (UniProt Q9Y6X9); assay: SEC
[2] = target: human MORC2(1-603) Y18A (human) (UniProt Q9Y6X9); assay: differential scanning fluorimetry

Row | Substance | binding [1] | binding [2]
1 | human MORC2(1-603) N39A (from UniProt Q9Y6X9 1-603) (domain or fragment) | no binding | 
2 | human MORC2(1-603) Y18A (from UniProt Q9Y6X9 1-603) (domain or fragment) |  | no binding
